According to the supplement of paper PMC8728848:
This is one part of the list.

Key:
Experiment in all cases: glycan array binding signal (z-score within array); higher = stronger binding
Details in all cases: glycan notation: IUPAC condensed, linker removed
[1] = target: Gal3S(b1-3)[Fuc(a1-4)]GlcNAc
Outline: (§1)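 Arrays were curated from the Consortium for Functional Glycomics database, 3228 in total, and kept only where the protein sequence was available. Binding is expressed as a within-array Z-score. This score was averaged across arrays of the same protein sequence at different concentrations or buffers and across linkers, and negative values can be read as non-binding.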

Gal3S(b1-4)Glc = target: Gal3S(b1-4)Glc
Outline: as §1

Gal3S(b1-4)Glc6S = target: Gal3S(b1-4)Glc6S
Outline: as §1

Gal3S(b1-4)GlcNAc = target: Gal3S(b1-4)GlcNAc
Outline: as §1

[2] = target: Gal3S(b1-4)[Fuc(a1-3)]Glc6S
Outline: as §1

[3] = target: Gal3S(b1-4)[Fuc(a1-3)]GlcNAc
Outline: as §1

[4] = target: Gal3S(b1-4)[Fuc(a1-3)]GlcNAc6S
Outline: as §1

Gal3S4S(b1-4)GlcNAc = target: Gal3S4S(b1-4)GlcNAc
Outline: as §1

Gal3S6S(b1-4)GlcNAc = target: Gal3S6S(b1-4)GlcNAc
Outline: as §1

Gal3S6S(b1-4)GlcNAc6S = target: Gal3S6S(b1-4)GlcNAc6S
Outline: as §1

Gal4S(b1-4)GlcNAc = target: Gal4S(b1-4)GlcNAc
Outline: as §1

Gal4S6S(b1-4)GlcNAc = target: Gal4S6S(b1-4)GlcNAc
Outline: as §1

Gal6P(b1-4)GlcNAc = target: Gal6P(b1-4)GlcNAc
Outline: as §1

Gal6S(b1-3)GlcNAc = target: Gal6S(b1-3)GlcNAc
Outline: as §1

Gal6S(b1-3)GlcNAc6S = target: Gal6S(b1-3)GlcNAc6S
Outline: as §1

Gal6S(b1-4)Glc = target: Gal6S(b1-4)Glc
Outline: as §1

Gal6S(b1-4)Glc6S = target: Gal6S(b1-4)Glc6S
Outline: as §1

Gal6S(b1-4)GlcNAc = target: Gal6S(b1-4)GlcNAc
Outline: as §1

Gal6S(b1-4)GlcNAc6S = target: Gal6S(b1-4)GlcNAc6S
Outline: as §1

GalNAc(a1-3)Gal = target: GalNAc(a1-3)Gal
Outline: as §1

GalNAc(a1-3)GalNAc = target: GalNAc(a1-3)GalNAc
Outline: as §1

[5] = target: GalNAc(a1-3)GalNAc(b1-3)Gal(a1-4)Gal(b1-4)Glc
Outline: as §1

[6] = target: GalNAc(a1-3)GalNAc(b1-3)Gal(a1-4)Gal(b1-4)GlcNAc
Outline: as §1

GalNAc(b1-3)Gal = target: GalNAc(b1-3)Gal
Outline: as §1

[7] = target: GalNAc(b1-3)Gal(a1-4)Gal(b1-4)GlcNAc
Outline: as §1

[8] = target: GalNAc(b1-3)Gal(a1-4)Gal(b1-4)GlcNAc(b1-3)Gal(b1-4)Glc
Outline: as §1

[9] = target: GalNAc(b1-3)Gal(a1-6)Gal(b1-4)Glc
Outline: as §1

GalNAc(b1-3)GalNAc = target: GalNAc(b1-3)GalNAc
Outline: as §1

GalNAc(b1-3)GlcNAc = target: GalNAc(b1-3)GlcNAc
Outline: as §1

GalNAc(b1-4)Gal(b1-4)Glc = target: GalNAc(b1-4)Gal(b1-4)Glc
Outline: as §1

GalNAc(b1-4)GlcNAc = target: GalNAc(b1-4)GlcNAc
Outline: as §1

[10] = target: GalNAc(b1-4)GlcNAc(b1-2)Man
Outline: as §1

[11] = target: GalNAc(b1-4)GlcNAc(b1-2)Man(a1-3)[GalNAc(b1-4)GlcNAc(b1-2)Man(a1-6)]Man(b1-4)GlcNAc(b1-4)GlcNAc
Outline: as §1

[12] = target: GalNAc(b1-4)GlcNAc(b1-3)GalNAc(b1-4)GlcNAc
Outline: as §1

GalNAc(b1-4)GlcNAc6S = target: GalNAc(b1-4)GlcNAc6S
Outline: as §1

GalNAc(b1-6)GalNAc = target: GalNAc(b1-6)GalNAc
Outline: as §1

GalNAc3S(b1-4)GlcNAc = target: GalNAc3S(b1-4)GlcNAc
Outline: as §1

GalNAc3S(b1-4)GlcNAc3S = target: GalNAc3S(b1-4)GlcNAc3S
Outline: as §1

[13] = target: GalNAc3S(b1-4)[Fuc(a1-3)]GlcNAc
Outline: as §1

GalNAc4S6S(b1-4)GlcNAc = target: GalNAc4S6S(b1-4)GlcNAc
Outline: as §1

GalNAc6S(b1-4)GlcNAc = target: GalNAc6S(b1-4)GlcNAc
Outline: as §1

Glc(a1-4)Glc = target: Glc(a1-4)Glc
Outline: as §1

[14] = target: Glc(a1-4)Glc(a1-4)Glc(a1-4)Glc
Outline: as §1

Glc(a1-6)Glc(a1-6)Glc = target: Glc(a1-6)Glc(a1-6)Glc
Outline: as §1

[15] = target: Glc(a1-6)Glc(a1-6)Glc(a1-6)Glc
Outline: as §1

B1: MUB70 (Lactobacillus reuteri) (protein)
chain: CVHVQYIDGETDQMLRQDDLDGYTDETIPYSTAEGIKKFEGDGYELFKDNFPAGEKFDNDDTNDQFYTVIF
glycan array binding signal (z-score) [1]: -0.325
glycan array binding signal (z-score) (Gal3S(b1-4)Glc): -0.177
glycan array binding signal (z-score) (Gal3S(b1-4)Glc6S): -0.889
glycan array binding signal (z-score) (Gal3S(b1-4)GlcNAc): 0.245
glycan array binding signal (z-score) [2]: -0.656
glycan array binding signal (z-score) [3]: 0.074
glycan array binding signal (z-score) [4]: 0.698
glycan array binding signal (z-score) (Gal3S4S(b1-4)GlcNAc): -0.523
glycan array binding signal (z-score) (Gal3S6S(b1-4)GlcNAc): -0.511
glycan array binding signal (z-score) (Gal3S6S(b1-4)GlcNAc6S): 3.78
glycan array binding signal (z-score) (Gal4S(b1-4)GlcNAc): -0.859
glycan array binding signal (z-score) (Gal4S6S(b1-4)GlcNAc): 1.99
glycan array binding signal (z-score) (Gal6P(b1-4)GlcNAc): -0.401
glycan array binding signal (z-score) (Gal6S(b1-3)GlcNAc): -0.69
glycan array binding signal (z-score) (Gal6S(b1-3)GlcNAc6S): 4.49
glycan array binding signal (z-score) (Gal6S(b1-4)Glc): -0.45
glycan array binding signal (z-score) (Gal6S(b1-4)Glc6S): -0.439
glycan array binding signal (z-score) (Gal6S(b1-4)GlcNAc): -0.054
glycan array binding signal (z-score) (Gal6S(b1-4)GlcNAc6S): -0.436
glycan array binding signal (z-score) (GalNAc(a1-3)Gal): -0.57
glycan array binding signal (z-score) (GalNAc(a1-3)GalNAc): -0.291
glycan array binding signal (z-score) [5]: -0.132
glycan array binding signal (z-score) [6]: 0.279
glycan array binding signal (z-score) (GalNAc(b1-3)Gal): 0.027
glycan array binding signal (z-score) [7]: 0.58
glycan array binding signal (z-score) [8]: 0.493
glycan array binding signal (z-score) [9]: -0.028
glycan array binding signal (z-score) (GalNAc(b1-3)GalNAc): -0.426
glycan array binding signal (z-score) (GalNAc(b1-3)GlcNAc): -0.051
glycan array binding signal (z-score) (GalNAc(b1-4)Gal(b1-4)Glc): -0.303
glycan array binding signal (z-score) (GalNAc(b1-4)GlcNAc): -0.297
glycan array binding signal (z-score) [10]: -0.418
glycan array binding signal (z-score) [11]: 1.12
glycan array binding signal (z-score) [12]: 0.743
glycan array binding signal (z-score) (GalNAc(b1-4)GlcNAc6S): 0.276
glycan array binding signal (z-score) (GalNAc(b1-6)GalNAc): -0.531
glycan array binding signal (z-score) (GalNAc3S(b1-4)GlcNAc): -0.259
glycan array binding signal (z-score) (GalNAc3S(b1-4)GlcNAc3S): -0.012
glycan array binding signal (z-score) [13]: -0.183
glycan array binding signal (z-score) (GalNAc4S6S(b1-4)GlcNAc): 0.329
glycan array binding signal (z-score) (GalNAc6S(b1-4)GlcNAc): -0.027
glycan array binding signal (z-score) (Glc(a1-4)Glc): -0.223
glycan array binding signal (z-score) [14]: 0.215
glycan array binding signal (z-score) (Glc(a1-6)Glc(a1-6)Glc): -0.59
glycan array binding signal (z-score) [15]: -0.181
